In assay [1] the target is endogenous HDAC5 (mouse (endogenous in C2C12)) (UniProt Q9Z2V6). The experiment in a line: co-IP; endogenous HDAC5 immunoprecipitated (1 mg lysate, 2 μg anti-HDAC5) from lysates of proliferating pBABE and pBABE-G9a (G9a over-expressing) C2C12 cells; blots with anti-G9a, anti-MEF2C, anti-HDAC5.
Assay [2] concerns the target Flag-MEF2C full length (FL) (UniProt Q06413). The experiment in a line: co-IP; HEK293T cells co-transfected; RIPA lysates incubated with anti-Flag agarose beads; immunoblot with anti-Flag, anti-GFP or anti-MEF2C; in Fig. 3a cells treated or not with UNC0638 for 48 hr. A general note: In western blotting, separated proteins are transferred to a membrane and probed.
Another assay concerns the target Flag-MEF2C (UniProt Q06413). The description is as above.
In a further assay the target is Flag-G9a (full length) (UniProt Q96KQ7). The assay is described as above.
Assay [3] deals with endogenous G9a (mouse (endogenous in C2C12)) (UniProt Q9Z148). The experiment in a line: co-IP; endogenous G9a immunoprecipitated from C2C12 lysates (1 mg lysate, 2 μg anti-G9a); IgG as negative control; blot for endogenous MEF2C.

Sequences of proteins named here, by UniProt entry; tags and fusion partners are left off.
UniProt Q9Z2V6: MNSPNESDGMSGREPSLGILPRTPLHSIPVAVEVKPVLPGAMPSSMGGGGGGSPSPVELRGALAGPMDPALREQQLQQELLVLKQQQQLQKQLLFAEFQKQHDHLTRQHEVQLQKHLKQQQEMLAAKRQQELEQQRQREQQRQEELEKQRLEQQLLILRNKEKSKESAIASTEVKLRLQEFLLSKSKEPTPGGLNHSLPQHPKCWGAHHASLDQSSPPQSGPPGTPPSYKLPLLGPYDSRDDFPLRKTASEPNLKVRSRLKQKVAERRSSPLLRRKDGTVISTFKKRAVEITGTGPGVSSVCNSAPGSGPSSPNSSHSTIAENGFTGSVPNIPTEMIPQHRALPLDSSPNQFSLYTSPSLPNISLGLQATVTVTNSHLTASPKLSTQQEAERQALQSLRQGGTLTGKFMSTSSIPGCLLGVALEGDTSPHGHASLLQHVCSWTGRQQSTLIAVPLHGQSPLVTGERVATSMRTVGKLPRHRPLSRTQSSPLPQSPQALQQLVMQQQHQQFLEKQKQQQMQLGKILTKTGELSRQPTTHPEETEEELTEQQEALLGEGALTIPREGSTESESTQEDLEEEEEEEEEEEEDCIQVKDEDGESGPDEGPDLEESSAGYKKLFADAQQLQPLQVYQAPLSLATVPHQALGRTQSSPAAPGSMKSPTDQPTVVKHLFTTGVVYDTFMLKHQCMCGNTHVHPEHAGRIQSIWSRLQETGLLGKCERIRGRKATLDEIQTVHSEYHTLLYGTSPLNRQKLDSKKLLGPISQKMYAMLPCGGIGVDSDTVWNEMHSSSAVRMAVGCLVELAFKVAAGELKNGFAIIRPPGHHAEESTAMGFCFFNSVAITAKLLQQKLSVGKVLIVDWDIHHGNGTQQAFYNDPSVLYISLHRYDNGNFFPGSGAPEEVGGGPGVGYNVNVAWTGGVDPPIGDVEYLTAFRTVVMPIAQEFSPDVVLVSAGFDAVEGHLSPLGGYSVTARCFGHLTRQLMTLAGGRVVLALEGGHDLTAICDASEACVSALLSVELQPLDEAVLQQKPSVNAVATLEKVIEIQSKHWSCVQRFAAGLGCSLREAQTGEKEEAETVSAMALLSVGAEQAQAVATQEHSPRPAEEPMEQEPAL
UniProt Q06413: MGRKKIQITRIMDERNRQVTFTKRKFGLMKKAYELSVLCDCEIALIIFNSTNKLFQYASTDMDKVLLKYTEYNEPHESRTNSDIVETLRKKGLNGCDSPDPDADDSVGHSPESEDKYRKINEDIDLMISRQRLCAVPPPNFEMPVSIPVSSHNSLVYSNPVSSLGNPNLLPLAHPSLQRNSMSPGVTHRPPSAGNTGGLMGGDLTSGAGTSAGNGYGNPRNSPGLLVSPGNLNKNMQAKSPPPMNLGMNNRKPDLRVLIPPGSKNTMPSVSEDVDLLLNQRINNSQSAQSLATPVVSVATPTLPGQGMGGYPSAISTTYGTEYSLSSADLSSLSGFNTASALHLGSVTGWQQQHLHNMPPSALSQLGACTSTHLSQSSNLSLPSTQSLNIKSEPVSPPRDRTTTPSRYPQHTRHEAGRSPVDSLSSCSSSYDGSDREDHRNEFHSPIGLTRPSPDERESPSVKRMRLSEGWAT
UniProt Q96KQ7: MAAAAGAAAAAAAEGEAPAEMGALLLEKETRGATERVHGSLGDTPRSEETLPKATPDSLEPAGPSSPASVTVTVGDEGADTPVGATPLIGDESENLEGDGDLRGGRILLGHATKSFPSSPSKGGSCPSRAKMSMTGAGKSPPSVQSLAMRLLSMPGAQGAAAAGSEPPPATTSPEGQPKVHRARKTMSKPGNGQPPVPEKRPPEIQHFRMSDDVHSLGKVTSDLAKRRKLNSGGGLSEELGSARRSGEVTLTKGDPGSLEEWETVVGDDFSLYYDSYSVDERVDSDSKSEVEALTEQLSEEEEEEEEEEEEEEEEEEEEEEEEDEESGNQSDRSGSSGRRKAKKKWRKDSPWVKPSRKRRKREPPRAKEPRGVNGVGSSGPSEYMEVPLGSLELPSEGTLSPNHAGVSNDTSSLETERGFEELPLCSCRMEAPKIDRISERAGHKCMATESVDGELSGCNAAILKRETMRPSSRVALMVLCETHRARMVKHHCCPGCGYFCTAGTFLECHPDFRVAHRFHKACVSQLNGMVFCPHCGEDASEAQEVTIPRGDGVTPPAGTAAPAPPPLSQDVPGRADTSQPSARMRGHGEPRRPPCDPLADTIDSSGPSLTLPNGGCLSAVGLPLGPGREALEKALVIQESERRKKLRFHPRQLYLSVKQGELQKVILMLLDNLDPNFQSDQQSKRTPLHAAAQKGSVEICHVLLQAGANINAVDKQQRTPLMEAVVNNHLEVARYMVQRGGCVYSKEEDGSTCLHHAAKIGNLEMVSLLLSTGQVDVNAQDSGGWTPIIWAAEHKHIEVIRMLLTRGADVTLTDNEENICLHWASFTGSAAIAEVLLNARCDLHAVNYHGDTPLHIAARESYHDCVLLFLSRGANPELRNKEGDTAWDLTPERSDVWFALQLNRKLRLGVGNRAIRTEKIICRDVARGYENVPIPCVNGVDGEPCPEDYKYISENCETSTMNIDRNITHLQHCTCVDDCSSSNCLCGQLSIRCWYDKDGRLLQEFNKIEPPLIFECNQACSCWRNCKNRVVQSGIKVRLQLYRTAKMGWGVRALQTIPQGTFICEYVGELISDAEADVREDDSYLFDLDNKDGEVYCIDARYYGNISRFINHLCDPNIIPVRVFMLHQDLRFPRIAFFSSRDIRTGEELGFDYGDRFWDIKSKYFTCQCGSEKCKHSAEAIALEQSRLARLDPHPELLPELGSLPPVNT
UniProt Q9Z148: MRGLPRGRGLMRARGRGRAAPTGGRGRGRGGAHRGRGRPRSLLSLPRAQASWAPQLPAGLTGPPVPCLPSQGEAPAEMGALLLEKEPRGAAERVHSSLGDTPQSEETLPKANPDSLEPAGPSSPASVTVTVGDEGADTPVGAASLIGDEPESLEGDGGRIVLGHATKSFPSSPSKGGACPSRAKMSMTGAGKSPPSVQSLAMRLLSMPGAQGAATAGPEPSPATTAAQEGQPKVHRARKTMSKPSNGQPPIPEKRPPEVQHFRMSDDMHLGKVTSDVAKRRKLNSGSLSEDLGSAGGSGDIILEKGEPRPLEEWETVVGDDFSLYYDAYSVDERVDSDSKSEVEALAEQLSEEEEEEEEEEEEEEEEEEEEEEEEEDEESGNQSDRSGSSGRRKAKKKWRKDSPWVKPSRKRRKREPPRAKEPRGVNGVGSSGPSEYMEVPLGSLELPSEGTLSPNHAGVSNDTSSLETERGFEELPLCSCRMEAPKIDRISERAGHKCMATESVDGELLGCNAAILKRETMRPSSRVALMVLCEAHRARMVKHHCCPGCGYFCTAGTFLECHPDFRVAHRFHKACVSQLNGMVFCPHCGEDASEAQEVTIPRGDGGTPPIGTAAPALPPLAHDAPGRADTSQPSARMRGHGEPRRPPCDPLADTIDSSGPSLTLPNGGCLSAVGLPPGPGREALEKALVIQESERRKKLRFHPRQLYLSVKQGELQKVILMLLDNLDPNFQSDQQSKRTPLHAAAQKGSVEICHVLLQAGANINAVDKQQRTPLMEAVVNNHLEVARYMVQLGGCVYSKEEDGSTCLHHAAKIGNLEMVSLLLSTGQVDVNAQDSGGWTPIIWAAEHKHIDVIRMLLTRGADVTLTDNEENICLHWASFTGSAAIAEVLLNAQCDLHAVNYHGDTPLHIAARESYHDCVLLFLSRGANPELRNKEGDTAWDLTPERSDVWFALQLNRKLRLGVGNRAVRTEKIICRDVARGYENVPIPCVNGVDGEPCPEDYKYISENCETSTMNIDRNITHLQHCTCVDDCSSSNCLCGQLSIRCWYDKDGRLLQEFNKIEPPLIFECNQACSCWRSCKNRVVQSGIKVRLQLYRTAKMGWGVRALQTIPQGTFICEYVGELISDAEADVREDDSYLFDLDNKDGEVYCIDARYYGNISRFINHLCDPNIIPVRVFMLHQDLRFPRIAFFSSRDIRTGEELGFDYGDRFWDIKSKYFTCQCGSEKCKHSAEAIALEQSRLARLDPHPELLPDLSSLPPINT
UniProt Q8CFN5: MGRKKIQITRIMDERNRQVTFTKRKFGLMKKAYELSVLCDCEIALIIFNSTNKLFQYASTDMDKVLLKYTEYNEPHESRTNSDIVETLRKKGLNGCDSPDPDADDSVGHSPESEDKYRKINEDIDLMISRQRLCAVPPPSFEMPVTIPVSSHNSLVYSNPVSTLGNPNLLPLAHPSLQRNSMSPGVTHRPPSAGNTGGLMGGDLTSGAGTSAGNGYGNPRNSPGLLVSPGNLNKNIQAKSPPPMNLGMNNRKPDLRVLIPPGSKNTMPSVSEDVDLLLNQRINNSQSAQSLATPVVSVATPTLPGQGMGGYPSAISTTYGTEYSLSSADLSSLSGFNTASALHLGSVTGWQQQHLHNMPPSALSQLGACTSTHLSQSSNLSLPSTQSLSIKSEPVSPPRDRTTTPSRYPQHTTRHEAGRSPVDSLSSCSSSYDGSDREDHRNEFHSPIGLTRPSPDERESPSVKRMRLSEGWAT

Results are given in words; binding and its absence hold for the method and conditions named. Binding seen in cells or lysates may run through a third protein. Some entries that bind do so weakly or less than the wild type.

Here are results for four substances from article PMC5036183.

For “endogenous G9a (from UniProt Q9Z148 1-1263) (enzyme)”, in assay [1], the binding result was “binds”. Turning to “EGFP-G9a (from UniProt Q96KQ7 1-1210) (enzyme)”, the binding result (in assay [2]; with Flag-MEF2C) was “binds” each time. On to “MEF2C (co-transfected with Flag-G9a, Fig. 3b) (from UniProt Q06413 1-473)”, for which, in the assay with Flag-G9a (full length), the binding result was “binds”.

With “endogenous MEF2C (from UniProt Q8CFN5 1-474)”, the binding result in assay [1] and in assay [3] was “binds” each time.
